PubChem BioAssay AID248 (DTP/NCI, 2004)
The list is a part of this screen's results and no random one: it gathers some chemical classes. Not every dose and run of a compound is shown. T/C: endpoint of the treated group in % of that of the vehicle group. For survival time, the PubChem record calls one and a half times the control and up active, and a quarter to a half above the control has no call in these data; cut-offs in other NCI protocols can differ. Some T/C values are marked as having no survivor count here; that says nothing about deaths at the dose. Schedule codes are those of the source, read here as Q, the interval in days (D) or hours (H), X, the number of doses. Additions like (4×) give the number of equal values in this list. Some entries were tested several times; the values are given in rising order. Some schedule codes hold Z or #, which are not explained here.

Tested on: L1210 leukemia ip in BDF1 mice, survival T/C
Assay: NCI In Vivo Anticancer Drug Screen. Data for tumor model L1210 Leukemia (intraperitoneal) in B6D2F1 (BDF1) mice
Settings: T/C endpoint: mean survival time, vehicle: saline, higher T/C = longer survival

O=C(O)CN(CCCl)CCCl
T/C (dose: 0.13 mg/kg/injection, schedule: Q01DX Z (ip)): 105 % of control [survivor count not shown] | T/C (dose: 0.25 mg/kg/injection, schedule: Q01DX Z (ip)): 105 % of control [survivor count not shown] | T/C (dose: 0.5 mg/kg/injection, schedule: Q01DX Z (ip)): 105 % of control [survivor count not shown] | T/C (dose: 0.63 mg/kg/injection, schedule: Q01DX009 (ip)): 117 % of control [survivor count not shown] (2×) | T/C (dose: 1.0 mg/kg/injection, schedule: Q01DX Z (ip)): 109 [survivor count not shown] and 126 % of control [survivor count not shown] | T/C (dose: 1.25 mg/kg/injection, schedule: Q01DX009 (ip)): 131 [survivor count not shown] and 140 % of control [survivor count not shown] | T/C (dose: 1.25 mg/kg/injection, schedule: Q01DX010 (ip)): 138 % of control [survivor count not shown] | T/C (dose: 2.0 mg/kg/injection, schedule: Q01DX Z (ip)): 121 % of control [survivor count not shown] | T/C (dose: 2.5 mg/kg/injection, schedule: Q01DX009 (ip)): 136 [survivor count not shown] and 139 % of control [survivor count not shown] | T/C (dose: 2.5 mg/kg/injection, schedule: Q01DX010 (ip)): 143 % of control [survivor count not shown] | T/C (dose: 3.13 mg/kg/injection, schedule: Q01DX010 (ip)): 130 % of control [survivor count not shown] | T/C (dose: 4.0 mg/kg/injection, schedule: Q01DX Z (ip)): 122 % of control [survivor count not shown] | T/C (dose: 5.0 mg/kg/injection, schedule: Q01DX009 (ip)): 137 [survivor count not shown] and 185 % of control [survivor count not shown] | T/C (dose: 6.25 mg/kg/injection, schedule: Q01DX010 (ip)): 105 % of control [survivor count not shown] | T/C (dose: 8.0 mg/kg/injection, schedule: Q01DX Z (ip)): 93 % of control [survivor count not shown]
